# Source: PubChem BioAssay AID1259425 (University of Nebraska Medical Center, 2018)
# Purpose: 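Find knockdowns that reproduce the gene expression pattern seen when KSR1 is lost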 (primary screen)
# Cell system: HCT116 human colon cancer cells
# Reagents: siRNA pool against human genes, 50 nM siRNA
# Read-out: 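mRNA of six signature genes measured together by branched-DNA assay after 50 nM siRNA pool, blank removed, divided by geometric mean of two housekeeping genes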
# Scale: BNIP3L mRNA: higher = more BNIP3L transcript after knockdown; NDRG1 mRNA: higher = more NDRG1 transcript after knockdown; BNIP3 mRNA: higher = more BNIP3 transcript after knockdown; ALDOC mRNA: higher = more ALDOC transcript after knockdown; ACSL5 mRNA: higher = more ACSL5 transcript after knockdown
# Shown is an unselected part of about 14,000 deposited reagents. The record does not give: the time to read-out.
target,"BNIP3L mRNA, set 1","NDRG1 mRNA, set 1","BNIP3 mRNA, set 1","ALDOC mRNA, set 1","ACSL5 mRNA, set 1"
ARL15 (GeneID 54622),0.11,0.153,0.205,0.0327,0.118
PRPH2 (GeneID 5961),0.197,0.696,0.246,0.0304,0.28
HADH (GeneID 3033),0.0953,0.126,0.171,0.0274,0.127
TMEM63C (GeneID 57156),0.205,0.169,0.17,0.0528,0.224
GRM7 (GeneID 2917),0.105,0.153,0.439,0.0866,0.154
MFAP3L (GeneID 9848),0.126,0.492,0.353,0.00652,0.228
IDH2 (GeneID 3418),0.101,0.116,0.12,0.015,0.0953
MAP3K11 (GeneID 4296),0.197,1.05,0.359,0.0303,0.313
PRAME (GeneID 23532),0.0543,0.235,0.289,0.0349,0.24
MAPK15 (GeneID 225689),0.0466,0.138,0.356,0.00907,0.21
PARVG (GeneID 64098),0.107,0.171,0.232,0.0278,0.217
CPZ (GeneID 8532),0.117,0.413,0.364,0.0402,0.155
GRM2 (GeneID 2912),0.243,0.253,0.294,0.0518,0.36
ZNF496 (GeneID 84838),0.17,0.218,0.254,0.058,0.161
DKK4 (GeneID 27121),0.0931,0.404,0.311,0.0126,0.116
PSRC1 (GeneID 84722),0.186,0.208,0.279,0.0303,0.0968
ZNF219 (GeneID 51222),0.0984,0.132,0.427,0.0191,0.126
LGALS7 (GeneID 3963),0.137,0.293,0.325,0.0212,0.142
STX10 (GeneID 8677),0.0536,0.171,0.187,0.0251,0.134
DDX49 (GeneID 54555),0.148,0.29,0.451,0.0147,0.102
SUGP2 (GeneID 10147),0.198,0.183,0.366,0.0512,0.182
MFAP2 (GeneID 4237),0.0876,0.123,0.161,0.0147,0.15

Just “ALDOC mRNA, set 1”, for 8 of the entries above:
HADH (GeneID 3033)	0.0274
TMEM63C (GeneID 57156)	0.0528
GRM7 (GeneID 2917)	0.0866
MFAP3L (GeneID 9848)	0.00652
IDH2 (GeneID 3418)	0.015
MAP3K11 (GeneID 4296)	0.0303
PRAME (GeneID 23532)	0.0349
MAPK15 (GeneID 225689)	0.00907

Continued.
target,"BNIP3L mRNA, set 1","NDRG1 mRNA, set 1","BNIP3 mRNA, set 1","ALDOC mRNA, set 1","ACSL5 mRNA, set 1"
TCEA1 (GeneID 6917),0.0591,0.126,0.255,0.012,0.185
PLPPR3 (GeneID 79948),0.0631,0.154,0.206,0.0147,0.136
ADK (GeneID 132),0.121,0.141,0.161,0.0056,0.229
OSTC (GeneID 58505),0.111,0.206,0.218,0.0494,0.19
DHX40 (GeneID 79665),0.189,0.451,0.453,0.0453,0.202
RBPJL (GeneID 11317),0.155,0.233,0.311,0.0239,0.175
C1R (GeneID 715),0.131,0.194,0.309,0.0161,0.12
VPS18 (GeneID 57617),0.0773,0.127,0.216,0.0135,0.123
CD33 (GeneID 945),0.117,0.284,0.15,0.0236,0.133
FGF7 (GeneID 2252),0.0357,0.127,0.22,0.0107,0.119
PRPS1L1 (GeneID 221823),0.0459,0.062,0.408,0.0109,0.205
SYN3 (GeneID 8224),0.0551,0.077,0.223,0.00864,0.121
COPS6 (GeneID 10980),0.164,0.83,0.348,0.0337,0.205
FZD6 (GeneID 8323),0.314,0.495,0.855,0.0871,0.166
HOXA5 (GeneID 3202),0.194,0.118,0.275,0.0281,0.316
ST3GAL1 (GeneID 6482),0.145,0.192,0.386,0.0381,0.312
PARP8 (GeneID 79668),0.187,0.283,0.41,0.065,0.409
UQCC1 (GeneID 55245),0.109,0.264,0.277,0.059,0.181
ARHGAP8 (GeneID 23779),0.103,0.211,0.239,0.0141,0.0967
CNTN5 (GeneID 53942),0.062,0.231,0.341,0.0135,0.166
PYGL (GeneID 5836),0.032,1.16,0.387,0.0246,0.175
ALDH4A1 (GeneID 8659),0.0497,0.143,0.195,0.00487,0.14
PBXIP1 (GeneID 57326),0.164,0.369,0.454,0.021,0.155
MSANTD2 (GeneID 79684),0.234,0.464,0.319,0.018,0.34
TAF3 (GeneID 83860),0.199,0.264,0.501,0.0766,0.551
PMP2 (GeneID 5375),0.089,0.113,0.275,0.0458,0.0849
MVD (GeneID 4597),0.0572,0.18,0.24,0.00587,0.356
DCLK1 (GeneID 9201),0.146,0.144,0.376,0.0189,0.145
CDKN2B (GeneID 1030),0.0634,0.0626,0.388,0.0138,0.239
KIAA0513 (GeneID 9764),0.129,0.276,0.331,0.0394,0.161
A4GNT (GeneID 51146),0.0897,0.347,0.248,0.0301,0.296
CMTM6 (GeneID 54918),0.0705,0.0901,0.229,0.0204,0.172
METTL14 (GeneID 57721),0.12,0.116,0.258,0.0162,0.135
SMR3A (GeneID 26952),0.483,0.596,0.358,0.0669,0.17
ARL2BP (GeneID 23568),0.175,0.182,0.398,0.0353,0.454
ACKR3 (GeneID 57007),0.112,0.24,0.39,0.0566,0.309
RPE65 (GeneID 6121),-0.0146,-0.028,-0.0204,-0.0111,0.306
AK5 (GeneID 26289),0.0512,0.0937,0.323,0.00183,0.149
COL7A1 (GeneID 1294),0.0863,0.276,0.283,0.0244,0.132
MRPL11 (GeneID 65003),0.0489,0.208,0.275,0.00778,0.133
LGALS8 (GeneID 3964),0.0743,0.129,0.313,0.00769,0.273
